In paper PMC13139468, “A model for drug transport across two membranes of Gram-negative bacteria by an MFS tripartite assembly” (Nature Communications, 2026):
Results are given in words; binding and its absence hold for the method and conditions named. Sequences can lack the tags named with a protein.

Target: EmrB (modified EmrB, the BRIL-EmrB-ALFA part of the EmrB-EmrA fusion protein) (E. coli K-12 strain MG1655) (UniProt P0AEJ0)
Experiment: cryo-EM structure; EmrAB-TolC pump-EA (EmrB-EmrA fusion protein, modified free EmrA, TolC-FLAG), co-expressed and purified as a complex, in peptidisc, 0.7 mg/mL, holey carbon grids; single-particle cryo-EM, 300 kV; maps at 3.13 Å and 3.14 Å; both purified

B1: EmrB (modified EmrB, the BRIL-EmrB-ALFA part of the EmrB-EmrA fusion protein) (protein, UniProt P0AEJ0 13-498)
chain: VIMTIALSLATFMQVLDSTIANVAIPTIAGNLGSSLSQGTWVITSFGVANAISIPLTGWLAKRVGEVKLFLWSTIAFAIASWACGVSSSLNMLIFFRVIQGIVAGPLIPLSQSLLLNNYPPAKRSIALALWSMTVIVAPICGPILGGYISDNYHWGWIFFINVPIGVAVVLMTLQTLRGRETRTERRRIDAVGLALLVIGIGSLQIMLDRGKELDWFSSQEIIILTVVAVVAICFLIVWELTDDNPIVDLSLFKSRNFTIGCLCISLAYMLYFGAIVLLPQLLQEVYGYTATWAGLASAPVGIIPVILSPIIGRFAHKLDMRRLVTFSFIMYAVCFYWRAYTFEPGMDFGASAWPQFIQGFAVACFFMPLTTITLSGLPPERLAAASSLSNFTRTLAGSIGTSITTTMWTNRESMHHAQLTESVNPFNPNAQAMYSQLEGLGMTQQQASGWIAQQITNQGLIISANEIFWMSAGIFLVLLGLVWFA
- binding: no binding
